From PMC8446043
No constants are given. Whether binding was seen depends on the method and setting. In cells and extracts the contact can be indirect. These calls come from enrichment with a bait or labelling near it, and not all partners need be listed.

Biological target: GST fusion construct encompassing the two WW domains of Hecw (636-834aa) (Drosophila)
Assay: affinity purification with mass spectrometry; 2 uM GST-WW (Hecw 636-834) as bait incubated with 1 mg of S2 lysate for 2 h at 4 °C in YY buffer (50 mM Na-HEPES pH 7.5, 150 mM NaCl, 1 mM EDTA, 1 mM EGTA, 10% glycerol, 1% triton-100), four washes, LC-MS/MS; only the target purified

B1: Hrp48, endogenous in S2 cells (protein, UniProt P48809 1-421)
chain: MEEDERGKLFVGGLSWETTQENLSRYFCRFGDIIDCVVMKNNESGRSRGFGFVTFADPTNVNHVLQNGPHTLDGRTIDPKPCNPRTLQKPKKGGGYKVFLGGLPSNVTETDLRTFFNRYGKVTEVVIMYDQEKKKSRGFGFLSFEEESSVEHVTNERYINLNGKQVEIKKAEPRDGSGGQNSNNSTVGGAYGKLGNECSHWGPHHAPINMMQGQNGQMGGPPLNMPIGAPNMMPGYQGWGTSPQQQQYGYGNSGPGSYQGWGAPPGPQGPPPQWSNYAGPQQTQGYGGYDMYNSTSTGAPSGPSGGGSWNSWNMPPNSAGPTGAPGAGAGTATDMYSRAQAWATGGPSTTGPVGGMPRTGPGNSASKSGSEYDYGGYGSGYDYDYSNYVKQEGASNYGAGPRSAYGNDSSTQPPYATSQAV
B1 was tested, and the binding was “binds”.
